{
  "source": "paper PMC10777020",
  "about": "“The N1 domain of the peroxisomal AAA-ATPase Pex6 is required for Pex15 binding and proper assembly with Pex1” (The Journal of Biological Chemistry, 2023)",
  "binders": {"B1": {"name": "Pex1-FLAG (protein, UniProt P24004 1-1043)", "chain": "MTTTKRLKFENLRIQFSNAIVGNFLRLPHSIINVLESTNYAIQEFGIAVHSHNSDIPIVHLGWDGHDSGSSENVVLINPVLATVYDLNQKSPLVDLYIQRYDHTHLATEVYVTPETSDDWEIIDANAMRFQNGEILHQTRIVTPGETLICYLEGIVTKFKIDRVEPSMKSARITDGSLVVVAPKVNKTRLVKAEYGHSNKTILKNGAIQLLKKVILRSTVCKMDFPKDNLFVVYISDGAQLPSQKGYASIVKCSLRQSKKSDSDNKSVGIPSKKIGVFIKCDSQIPENHIALSSHLWDAFFTHPMNGAKIKLEFLQMNQANIISGRNATVNIKYFGKDVPTKSGDQYSKLLGGSLLTNNLILPTEQIIIEIKKGESEQQLCNLNEISNESVQWKVTQMGKEEVKDIIERHLPKHYHVKETGEVSRTSKDEDDFITVNSIKKEMVNYLTSPIIATPAIILDGKQGIGKTRLLKELINEVEKDHHIFVKYADCETLHETSNLDKTQKLIMEWCSFCYWYGPSLIVLDNVEALFGKPQANDGDPSNNGQWDNASKLLNFFINQVTKIFNKDNKRIRVLFSGKQKTQINPLLFDKHFVSETWSLRAPDKHARAKLLEYFFSKNQIMKLNRDLQFSDLSLETEGFSPLDLEIFTEKIFYDLQLERDCDNVVTRELFSKSLSAFTPSALRGVKLTKETNIKWGDIGALANAKDVLLETLEWPTKYEPIFVNCPLRLRSGILLYGYPGCGKTLLASAVAQQCGLNFISVKGPEILNKFIGASEQNIRELFERAQSVKPCILFFDEFDSIAPKRGHDSTGVTDRVVNQLLTQMDGAEGLDGVYILAATSRPDLIDSALLRPGRLDKSVICNIPTESERLDILQAIVNSKDKDTGQKKFALEKNADLKLIAEKTAGFSGADLQGLCYNAYLKSVHRWLSAADQSEVVPGNDNIEYFSINEHGRREENRLRLKTLLQQDVVHETKTSTSAASELTAVVTINDLLEACQETKPSISTSELVKLRGIYDRFQKDRNGEMPNGENSIDIGSRLSLM"}, "B2": {"name": "Pex1-Δ941-967-FLAG (protein, UniProt P24004)", "chain": "MTTTKRLKFENLRIQFSNAIVGNFLRLPHSIINVLESTNYAIQEFGIAVHSHNSDIPIVHLGWDGHDSGSSENVVLINPVLATVYDLNQKSPLVDLYIQRYDHTHLATEVYVTPETSDDWEIIDANAMRFQNGEILHQTRIVTPGETLICYLEGIVTKFKIDRVEPSMKSARITDGSLVVVAPKVNKTRLVKAEYGHSNKTILKNGAIQLLKKVILRSTVCKMDFPKDNLFVVYISDGAQLPSQKGYASIVKCSLRQSKKSDSDNKSVGIPSKKIGVFIKCDSQIPENHIALSSHLWDAFFTHPMNGAKIKLEFLQMNQANIISGRNATVNIKYFGKDVPTKSGDQYSKLLGGSLLTNNLILPTEQIIIEIKKGESEQQLCNLNEISNESVQWKVTQMGKEEVKDIIERHLPKHYHVKETGEVSRTSKDEDDFITVNSIKKEMVNYLTSPIIATPAIILDGKQGIGKTRLLKELINEVEKDHHIFVKYADCETLHETSNLDKTQKLIMEWCSFCYWYGPSLIVLDNVEALFGKPQANDGDPSNNGQWDNASKLLNFFINQVTKIFNKDNKRIRVLFSGKQKTQINPLLFDKHFVSETWSLRAPDKHARAKLLEYFFSKNQIMKLNRDLQFSDLSLETEGFSPLDLEIFTEKIFYDLQLERDCDNVVTRELFSKSLSAFTPSALRGVKLTKETNIKWGDIGALANAKDVLLETLEWPTKYEPIFVNCPLRLRSGILLYGYPGCGKTLLASAVAQQCGLNFISVKGPEILNKFIGASEQNIRELFERAQSVKPCILFFDEFDSIAPKRGHDSTGVTDRVVNQLLTQMDGAEGLDGVYILAATSRPDLIDSALLRPGRLDKSVICNIPTESERLDILQAIVNSKDKDTGQKKFALEKNADLKLIAEKTAGFSGADLQGLCYNAYLKSVHRWLSAADQSEVVPGQDVVHETKTSTSAASELTAVVTINDLLEACQETKPSISTSELVKLRGIYDRFQKDRNGEMPNGENSIDIGSRLSLM"}},
  "key": {"His-Pex6 [1]": {"target": "T1, His-Pex6 (S. cerevisiae, UniProt P33760 1-1030)", "T1 construct": "Pex6, AAA-ATPase of S. cerevisiae; no limits stated for the construct; In all experiments it stood in a complex with Pex1-FLAG or a Pex1 variant; also called ScPex6; His-tagged Pex6; source: E. coli BL21*(DE3), co-expressed with Pex1-FLAG or its variants; in lysate, then purified (Ni-NTA, anti-FLAG, Superose6 Increase); not shown: His, N-terminal, kept", "T1 sequence": "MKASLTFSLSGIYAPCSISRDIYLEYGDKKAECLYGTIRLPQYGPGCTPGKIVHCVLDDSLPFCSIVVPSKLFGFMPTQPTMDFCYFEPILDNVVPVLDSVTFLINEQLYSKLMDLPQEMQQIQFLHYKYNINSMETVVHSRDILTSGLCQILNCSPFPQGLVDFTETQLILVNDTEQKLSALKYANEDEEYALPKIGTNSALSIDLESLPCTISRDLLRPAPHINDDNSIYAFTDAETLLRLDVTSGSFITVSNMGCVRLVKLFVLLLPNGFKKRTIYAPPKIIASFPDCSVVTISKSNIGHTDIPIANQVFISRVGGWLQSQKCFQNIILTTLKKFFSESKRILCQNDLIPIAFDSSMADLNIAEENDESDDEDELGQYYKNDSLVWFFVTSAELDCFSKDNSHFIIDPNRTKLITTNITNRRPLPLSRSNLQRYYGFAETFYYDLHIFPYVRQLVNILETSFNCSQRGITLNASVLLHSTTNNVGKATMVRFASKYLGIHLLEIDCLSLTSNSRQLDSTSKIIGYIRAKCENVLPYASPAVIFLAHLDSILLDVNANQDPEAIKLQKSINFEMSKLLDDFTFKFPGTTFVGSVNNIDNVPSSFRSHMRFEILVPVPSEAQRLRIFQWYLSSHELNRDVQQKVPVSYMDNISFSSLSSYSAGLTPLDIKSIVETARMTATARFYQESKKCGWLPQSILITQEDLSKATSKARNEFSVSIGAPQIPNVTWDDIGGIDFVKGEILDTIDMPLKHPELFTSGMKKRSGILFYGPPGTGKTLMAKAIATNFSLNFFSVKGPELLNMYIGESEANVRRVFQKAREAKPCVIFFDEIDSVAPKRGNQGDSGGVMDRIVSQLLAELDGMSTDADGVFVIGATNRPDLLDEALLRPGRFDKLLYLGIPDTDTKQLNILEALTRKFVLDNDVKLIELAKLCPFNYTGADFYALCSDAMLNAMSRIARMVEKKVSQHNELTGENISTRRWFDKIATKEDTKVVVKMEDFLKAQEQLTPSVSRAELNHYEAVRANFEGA", "assay": "cryo-EM structure; Pex1-FLAG/His-Pex6 incubated with 1 mM ATP and mEOS-Pex15 1-309, hexamer peak of Superose6 Increase; GF buffer; no density for the substrate; both purified"}, "[2]": {"target": "T2, ΔN1-Pex6 (His-tagged, lacks the first 184 amino acids) (S. cerevisiae) (UniProt P33760)", "T2 sequence": "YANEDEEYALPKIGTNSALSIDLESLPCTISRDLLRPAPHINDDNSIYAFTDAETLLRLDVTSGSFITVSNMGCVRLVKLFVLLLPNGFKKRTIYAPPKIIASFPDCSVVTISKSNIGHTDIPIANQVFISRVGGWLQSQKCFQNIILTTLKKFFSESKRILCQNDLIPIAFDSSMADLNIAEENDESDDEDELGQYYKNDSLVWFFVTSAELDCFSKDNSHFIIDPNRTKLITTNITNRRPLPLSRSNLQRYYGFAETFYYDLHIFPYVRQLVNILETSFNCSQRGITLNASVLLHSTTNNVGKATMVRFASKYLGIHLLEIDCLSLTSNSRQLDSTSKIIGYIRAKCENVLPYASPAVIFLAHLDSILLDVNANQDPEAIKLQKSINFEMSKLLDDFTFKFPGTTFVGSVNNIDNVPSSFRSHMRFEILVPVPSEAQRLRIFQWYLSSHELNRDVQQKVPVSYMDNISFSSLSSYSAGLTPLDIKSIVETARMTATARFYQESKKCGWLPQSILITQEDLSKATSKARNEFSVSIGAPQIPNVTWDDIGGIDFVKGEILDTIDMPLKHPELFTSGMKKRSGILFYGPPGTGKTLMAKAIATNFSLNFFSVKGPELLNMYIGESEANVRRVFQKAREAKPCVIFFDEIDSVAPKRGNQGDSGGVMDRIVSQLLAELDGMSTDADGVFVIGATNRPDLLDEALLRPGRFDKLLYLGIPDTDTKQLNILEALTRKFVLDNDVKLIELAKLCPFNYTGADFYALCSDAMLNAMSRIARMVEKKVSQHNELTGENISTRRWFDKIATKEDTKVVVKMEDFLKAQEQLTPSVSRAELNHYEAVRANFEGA", "assay": "tandem affinity co-purification; Pex1-FLAG and His-Pex6 variants co-expressed in E. coli BL21*(DE3); lysate bound to Ni-NTA (His on Pex6), eluate applied to anti-FLAG agarose (FLAG on Pex1); buffers with 1 mM ATP"}, "His-Pex6 [3]": {"target": "T1, His-Pex6", "assay": "tandem affinity co-purification; Pex1-FLAG and His-Pex6 variants co-expressed in E. coli BL21*(DE3); lysate bound to Ni-NTA (His on Pex6), eluate applied to anti-FLAG agarose (FLAG on Pex1); buffers with 1 mM ATP"}, "His-Pex6 [4]": {"target": "T1, His-Pex6", "assay": "SEC; Superose6 Increase 10/300, GF buffer with 1 mM ATP, after the two-step affinity purification; both purified"}},
  "note": "These are yes or no findings as the source states them, for the method shown. Some results given as binding are weak or reduced against the parent protein; the word gives no strength. Sequences can lack the tags named with a protein.",
  "data": [
    {"binder": "B1", "values": [
      {"measurement": "binding", "setting": "His-Pex6 [1]", "result": "binds"},
      {"measurement": "binding", "setting": "[2]", "result": "binds"},
      {"measurement": "binding", "setting": "His-Pex6 [3]", "result": "binds"}
    ]},
    {"binder": "B2", "values": [
      {"measurement": "binding", "setting": "His-Pex6 [3]", "result": "binds"},
      {"measurement": "binding", "setting": "His-Pex6 [4]", "result": "binds"}
    ]}
  ]
}
